Measured values from the supplement of paper PMC12819154, “High-throughput peptide-centric local stability assay extends protein–ligand identification to membrane proteins, tissues and bacteria” (Nature Structural & Molecular Biology, 2025).
The list shows a part of the results. Most values lie at the level of the controls, where differences are scatter.

Amino acid sequences for entries named in this document (tags omitted). A change or cut given only in a name is not applied to a line headed by its entry.
UniProt O95905: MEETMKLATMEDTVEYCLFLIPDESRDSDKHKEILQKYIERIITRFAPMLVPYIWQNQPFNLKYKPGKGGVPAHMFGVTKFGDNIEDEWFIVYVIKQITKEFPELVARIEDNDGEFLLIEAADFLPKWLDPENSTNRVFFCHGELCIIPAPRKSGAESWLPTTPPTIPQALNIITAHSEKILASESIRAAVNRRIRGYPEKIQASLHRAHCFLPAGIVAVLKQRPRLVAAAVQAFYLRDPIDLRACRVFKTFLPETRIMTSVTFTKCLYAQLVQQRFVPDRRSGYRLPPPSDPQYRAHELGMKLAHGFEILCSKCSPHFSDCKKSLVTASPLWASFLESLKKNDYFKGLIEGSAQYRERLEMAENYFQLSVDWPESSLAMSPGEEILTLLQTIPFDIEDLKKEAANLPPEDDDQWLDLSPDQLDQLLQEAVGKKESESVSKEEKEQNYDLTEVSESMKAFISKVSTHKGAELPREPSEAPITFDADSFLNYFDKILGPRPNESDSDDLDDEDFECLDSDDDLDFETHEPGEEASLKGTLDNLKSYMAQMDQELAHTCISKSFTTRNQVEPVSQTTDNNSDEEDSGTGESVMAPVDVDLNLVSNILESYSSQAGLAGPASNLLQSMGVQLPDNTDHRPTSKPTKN
UniProt O75844: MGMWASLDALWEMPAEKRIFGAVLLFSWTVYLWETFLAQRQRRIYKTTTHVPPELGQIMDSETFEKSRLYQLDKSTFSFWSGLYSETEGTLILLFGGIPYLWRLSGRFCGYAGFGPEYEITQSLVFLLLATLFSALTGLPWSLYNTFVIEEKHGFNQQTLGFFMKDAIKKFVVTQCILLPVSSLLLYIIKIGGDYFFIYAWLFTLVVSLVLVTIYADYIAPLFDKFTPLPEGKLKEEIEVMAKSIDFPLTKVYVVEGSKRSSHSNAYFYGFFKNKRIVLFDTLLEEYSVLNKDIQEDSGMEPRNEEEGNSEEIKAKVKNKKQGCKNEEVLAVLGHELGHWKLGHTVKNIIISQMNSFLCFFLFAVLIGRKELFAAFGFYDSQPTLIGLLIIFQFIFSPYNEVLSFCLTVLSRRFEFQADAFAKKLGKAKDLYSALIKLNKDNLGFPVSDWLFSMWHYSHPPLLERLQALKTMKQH
UniProt O95297: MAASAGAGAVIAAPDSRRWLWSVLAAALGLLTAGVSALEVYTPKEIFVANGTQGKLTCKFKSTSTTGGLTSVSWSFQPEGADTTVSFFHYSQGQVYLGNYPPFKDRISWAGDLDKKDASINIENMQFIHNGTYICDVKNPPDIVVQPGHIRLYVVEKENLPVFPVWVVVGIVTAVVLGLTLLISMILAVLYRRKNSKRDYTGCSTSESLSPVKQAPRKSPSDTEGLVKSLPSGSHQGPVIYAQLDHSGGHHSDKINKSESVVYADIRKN
UniProt O95825: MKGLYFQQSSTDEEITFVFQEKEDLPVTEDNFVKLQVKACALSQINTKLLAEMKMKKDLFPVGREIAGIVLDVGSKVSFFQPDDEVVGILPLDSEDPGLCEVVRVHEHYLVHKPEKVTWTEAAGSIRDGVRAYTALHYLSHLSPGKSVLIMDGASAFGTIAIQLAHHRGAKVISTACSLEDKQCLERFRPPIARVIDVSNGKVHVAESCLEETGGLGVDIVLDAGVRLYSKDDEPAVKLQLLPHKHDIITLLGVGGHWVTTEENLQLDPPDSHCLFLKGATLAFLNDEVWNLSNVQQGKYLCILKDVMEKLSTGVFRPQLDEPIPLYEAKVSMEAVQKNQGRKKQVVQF
UniProt O75971: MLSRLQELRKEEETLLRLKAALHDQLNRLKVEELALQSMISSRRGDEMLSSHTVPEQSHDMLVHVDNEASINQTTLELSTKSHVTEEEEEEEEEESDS
UniProt O75676: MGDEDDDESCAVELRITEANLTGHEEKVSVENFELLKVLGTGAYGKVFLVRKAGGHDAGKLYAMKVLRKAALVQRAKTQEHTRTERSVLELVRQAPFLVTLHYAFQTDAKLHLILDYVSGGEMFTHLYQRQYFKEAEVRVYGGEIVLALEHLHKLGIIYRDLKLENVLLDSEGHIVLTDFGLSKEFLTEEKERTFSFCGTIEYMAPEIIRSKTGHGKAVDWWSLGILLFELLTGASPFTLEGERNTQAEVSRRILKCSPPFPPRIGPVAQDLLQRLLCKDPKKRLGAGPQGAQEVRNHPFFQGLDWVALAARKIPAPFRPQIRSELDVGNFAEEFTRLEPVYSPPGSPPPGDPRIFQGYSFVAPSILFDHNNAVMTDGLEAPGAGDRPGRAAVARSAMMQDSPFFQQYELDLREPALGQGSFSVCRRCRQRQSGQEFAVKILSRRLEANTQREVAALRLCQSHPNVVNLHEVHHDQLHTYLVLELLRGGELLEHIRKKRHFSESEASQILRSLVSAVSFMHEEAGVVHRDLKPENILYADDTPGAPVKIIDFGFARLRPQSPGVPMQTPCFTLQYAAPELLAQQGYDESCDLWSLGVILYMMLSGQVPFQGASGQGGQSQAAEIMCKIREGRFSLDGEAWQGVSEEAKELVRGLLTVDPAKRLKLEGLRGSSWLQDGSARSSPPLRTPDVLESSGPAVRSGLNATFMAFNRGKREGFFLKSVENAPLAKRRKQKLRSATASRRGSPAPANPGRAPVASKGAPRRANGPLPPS
UniProt O94885: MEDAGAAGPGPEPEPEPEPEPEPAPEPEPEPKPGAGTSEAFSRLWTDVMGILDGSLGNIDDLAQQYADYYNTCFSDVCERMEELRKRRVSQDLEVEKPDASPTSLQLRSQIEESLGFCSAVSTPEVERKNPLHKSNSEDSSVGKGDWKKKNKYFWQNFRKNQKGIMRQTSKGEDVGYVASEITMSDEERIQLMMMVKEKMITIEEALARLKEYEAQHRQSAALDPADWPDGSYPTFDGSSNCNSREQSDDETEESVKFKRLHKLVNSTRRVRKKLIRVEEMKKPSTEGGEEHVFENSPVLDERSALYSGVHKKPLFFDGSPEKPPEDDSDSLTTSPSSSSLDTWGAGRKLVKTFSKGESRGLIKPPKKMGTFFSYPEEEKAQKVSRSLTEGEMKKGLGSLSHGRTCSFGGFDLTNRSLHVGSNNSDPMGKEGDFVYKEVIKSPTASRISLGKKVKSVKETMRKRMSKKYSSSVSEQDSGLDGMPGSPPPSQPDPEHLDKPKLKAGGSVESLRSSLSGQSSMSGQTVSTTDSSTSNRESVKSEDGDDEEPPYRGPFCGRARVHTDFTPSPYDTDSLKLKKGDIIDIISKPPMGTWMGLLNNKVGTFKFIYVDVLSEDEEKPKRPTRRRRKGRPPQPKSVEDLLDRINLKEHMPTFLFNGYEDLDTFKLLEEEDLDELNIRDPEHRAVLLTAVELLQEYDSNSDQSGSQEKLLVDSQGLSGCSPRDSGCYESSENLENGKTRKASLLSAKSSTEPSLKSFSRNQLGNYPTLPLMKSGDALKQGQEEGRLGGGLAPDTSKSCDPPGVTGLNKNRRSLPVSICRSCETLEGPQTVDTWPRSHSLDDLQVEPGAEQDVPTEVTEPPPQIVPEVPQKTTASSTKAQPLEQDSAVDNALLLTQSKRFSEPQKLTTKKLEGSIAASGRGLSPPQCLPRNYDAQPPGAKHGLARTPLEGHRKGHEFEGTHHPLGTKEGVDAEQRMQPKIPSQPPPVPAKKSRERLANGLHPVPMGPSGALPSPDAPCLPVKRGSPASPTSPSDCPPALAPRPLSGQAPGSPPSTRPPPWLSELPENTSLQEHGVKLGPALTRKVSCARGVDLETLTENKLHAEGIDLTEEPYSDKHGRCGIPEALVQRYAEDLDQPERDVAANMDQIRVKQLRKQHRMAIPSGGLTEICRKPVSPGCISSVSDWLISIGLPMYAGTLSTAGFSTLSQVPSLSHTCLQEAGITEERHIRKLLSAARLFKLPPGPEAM

compound: Cc1nc(Nc2ncc(C(=O)Nc3c(C)cccc3Cl)s2)cc(N2CCN(CCO)CC2)n1 [dasatinib]; assay: log2 fold change of tryptic peptide abundance, ligand vs vehicle (limited proteolysis) (log2 ratio); higher = more trypsin-susceptible (destabilized); settings: ligand concentration: 5 uM; sample: K562 cleared lysate

| Target | log2 fold change |
| --- | --- |
| ECD (peptide sequence: VFFCHGELCIIPAPRK, peptide start residue: 138) (UniProt O95905) | -0.327 |
| ZMPSTE24 (peptide sequence: DIQEDSGMEPR, peptide start residue: 293) (UniProt O75844) | -0.167 |
| MPZL1 (peptide sequence: KSPSDTEGLVK, peptide start residue: 218) (UniProt O95297) | -0.0228 |
| LDHA (peptide sequence: DYNVTANSK, peptide start residue: 82) (UniProt P00338) | -0.153 |
| CRYZL1 (peptide sequence: AYTALHYLSHLSPGK, peptide start residue: 132) (UniProt O95825) | 0.206 |
| SNAPC5 (peptide sequence: KEEETLLR, peptide start residue: 10) (UniProt O75971) | 0.142 |
| RPS6KA4 (peptide sequence: SVENAPLAK, peptide start residue: 721) (UniProt O75676) | -0.404 |
| SASH1 (peptide sequence: KPSTEGGEEHVFENSPVLDER, peptide start residue: 283) (UniProt O94885) | 0.962 |
